In PubChem BioAssay AID445 (National Center for Advancing Translational Sciences (NCATS), 2006) one finds AC50 data, which are given here for 38 compounds.

Some of the results follow. Shown are side measurements of this screen, not its main read-out; they come without a call. Compounds called inactive in the main read-out are mostly missing here. The note in brackets gives the kind of curve behind each potency; many fits are weak.

The nature of the assay: IkB Signaling. The note with it: ABC-DLBCL IkBa-CBG/CBR dual luciferase ratio (green luciferase fused to IkBa over red control in OCI-Ly3 lymphoma cells), 4 h. The procedure, abridged: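 Luminescence ratio of IκBα-fused green versus native red beetle luciferase in OCI-Ly3 cells, 4 h post-doxycycline with compound; red signal alone, scaled from basal (0%) to zero light (-100%), flagged nonspecific or cytotoxic effects.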
Where [1] appears, read: measured here: control luc red channel unless noted.

As a reminder, the AC50 is the concentration at which the activity in the assay is half-maximal. As to `CCS(=O)(=O)NCCc1csc2nc(-c3ccc(OC)cc3)nn12`, the AC50 under setting [1] is 12.6 µM [rising, partial curve].

Turning to `Cc1noc(C)c1C(=O)Nc1nc(C23CC4CC(CC(C4)C2)C3)cs1`, the AC50 under setting [1] was 3.16 µM [falling, single point].

Regarding `Cc1ccc(C)c(CN2C(=O)c3ccccc3S(=O)c3ccc(C(=O)N4CCCCC4)cc32)c1` (centres undefined), the AC50 under setting [1] is 20 µM [falling, partial curve].

Turning to `O=C(Nc1ccc(F)cc1F)C1CCN(C(=O)c2cnn(-c3ccccc3)c2-n2cccc2)CC1`, the AC50 under setting [1] was 25.1 µM [falling, single point].

With `CCN1/C(=C\C(C)=O)Sc2ccc(OC)cc21`, the AC50 under setting [1] was 15.8 µM [falling, single point].

In the case of `Oc1ccc(C(c2nnnn2C2CCCC2)N2CCc3ccccc3C2)cc1` (centres undefined), the AC50 under setting [1] was 25.1 µM [falling, partial curve].

With `Cn1cccc1-c1cc2n(n1)CCC(=O)N2CCCC(=O)NCc1cccc(Cl)c1`, the AC50 under setting [1] is 10 µM [falling, partial curve, poor fit].

Take `COc1ccc2c(c1)c(CC(=O)Nc1c(C)cccc1C)c(C)n2C(=O)c1ccc(Cl)cc1`: under setting [1], the AC50 was 10 µM [falling, full curve].

In the case of `CCn1c(SCC(=O)Nc2ccccc2N2CCCCC2)nc2c1c(=O)n(C)c(=O)n2C`, the AC50 under setting [1] was 25.1 µM [falling, partial curve].

Regarding `Cc1cc(C)cc(NC(=O)CCn2cnc3ccccc3c2=O)c1`, the AC50 under setting [1] is 15.8 µM [rising, partial curve, poor fit].

With `CCOc1ccccc1NC(=O)Cn1c(=O)n(-c2ccc(C)cc2)c(=O)c2c1cnn2C`, the AC50 under setting [1] was 0.0251 µM [falling, full curve].

For the compound `CCOc1ccc(OCc2ccc(C(=O)N3CCCC3)o2)cc1`, the AC50 under setting [1] was 15.8 µM [falling, partial curve].

As to `COc1ccc(NC(=O)c2ccc(NC(=O)CCS(=O)(=O)c3cccs3)cc2)cc1Cl`, the AC50 under setting [1] was 10 µM [falling, partial curve].

As for `Cc1ccc(-n2nnnc2SCC(=O)NCCc2ccccc2)cc1C`, under setting [1], the AC50 is 20 µM [falling, partial curve].

As to `CSCCC(NC(=O)c1ccccc1)c1nc(-c2ccccc2)no1` (centres undefined), the AC50 under setting [1] is 15.8 µM [falling, partial curve].

Turning to `Cc1ccc(S(=O)(=O)NCC(=O)N(CC(=O)NCC2CCCO2)C2CCCC2)cc1` (centres undefined), the AC50 under setting [1] was 6.31 µM [rising, single point] [measured here: IkB-luc green channel].

With `O=C(Nc1cccc(S(=O)(=O)C(F)F)c1)c1ccc(Cl)c(S(=O)(=O)N2CCOCC2)c1`, the AC50 by setting is: (measured here: IkB-luc green channel) 39.8 µM [rising, single point]; (measured here: control luc red channel) 6.31 µM [falling, single point].

In the case of `COc1ccc(NC(=O)Nc2nnc(N3CCCC3)s2)cc1`, under setting [1], the AC50 is 20 µM [falling, partial curve].

With `CCOC(=O)c1[nH]c(C)c(C(=O)N2CCN(c3cccc(Cl)c3)CC2)c1C`, under setting [1], the AC50 is 15.8 µM [falling, partial curve].

`Cc1ccc2c(=O)cc(C(=O)N(Cc3ccc(C(C)(C)C)cc3)C3CCS(=O)(=O)C3)oc2c1` (centres undefined): under setting [1], the AC50 is 6.31 µM [falling, partial curve].

Consider `Cc1ccc(NC(=O)c2c(C)oc3ccc(O)c(CN4CCOCC4)c23)cc1`, for which the AC50 under setting [1] was 12.6 µM [falling, partial curve].

Consider `Cc1ccc(-n2ncc(C(=O)NCc3ccc4c(c3)OCO4)c2C2CCN(C(=O)OC(C)(C)C)CC2)c(C)c1`, for which the AC50 under setting [1] is 31.6 µM [falling, single point].

With `CCc1nnc(NC(=O)CSc2nnc(-c3ccccc3O)n2-c2ccc(C)cc2C)s1`, the AC50 under setting [1] was 15.8 µM [falling, partial curve].

Consider `COC(=O)c1ccc(NC(=O)c2cc(S(=O)(=O)N3CCOCC3)cn2C)cc1`, for which the AC50 under setting [1] is 12.6 µM [falling, single point].

For the compound `COc1ccc(Cn2c(=O)c3oc4ccccc4c3n(CC(=O)Nc3c(C)cccc3C)c2=O)cc1`, the AC50 under setting [1] is 39.8 µM [falling, single point].

With `Cc1ccccc1Cn1c2ccccc2c2cnn(CC(=O)NC3CCCCCC3)c(=O)c21`, under setting [1], the AC50 is 5.01 µM [falling, partial curve].

Turning to `CN1CCN(C(=O)c2ccc3c(c2)N(Cc2ccc(C(F)(F)F)cc2)C(=O)c2ccccc2S3)CC1`, under setting [1], the AC50 was 20 µM [falling, partial curve].

On to `CN(CC(=O)Nc1cccc(F)c1)S(=O)(=O)c1ccc2c(c1)n(C)c(=O)c(=O)n2C`, for which, under setting [1], the AC50 was 0.2 µM [rising, full curve, poor fit].

Turning to `CC(=O)c1cccc(NC(=O)CSc2ncc3c(n2)-c2cc(Cl)ccc2N(Cc2ccccc2)S3(=O)=O)c1`, under setting [1], the AC50 was 10 µM [falling, partial curve].

For `COc1ccc(S(=O)(=O)NCc2nc(-c3ccccc3)no2)cc1`, the half-maximal activity concentration (AC50) under setting [1] is 5.01 µM [falling, partial curve].

On to `O=C(CN(C(=O)CSc1nnc(COc2ccccc2)o1)c1ccc(F)cc1)NC1CCCC1`, for which the AC50 under setting [1] was 15.8 µM [falling, partial curve].

For the compound `Oc1ccc(-c2nc3ccc(Cl)cn3c2Nc2ccc(Cl)cc2)cc1`, the AC50 under setting [1] is 12.6 µM [falling, partial curve].

Consider `Cc1ccccc1NC(=O)Cn1nc(-c2ccccc2)nc(Cc2ccccc2)c1=O`, for which the concentration at half-maximal activity (AC50) under setting [1] was 25.1 µM [falling, single point].

Regarding `COc1ccc(CNC(=O)CSc2nnc(C)c3c(C)n(-c4ccccc4)nc23)c(OC)c1`, under setting [1], the AC50 was 5.01 µM [falling, partial curve].

For the compound `COc1ccccc1NS(=O)(=O)c1ccc(OC)c(OC)c1`, the half-maximal activity concentration (AC50) under setting [1] was 10 µM [falling, partial curve].

With `CC(C)(C)C(=O)CSc1nc2ccsc2c(=O)n1Cc1ccccc1Cl`, under setting [1], the AC50 was 3.98 µM [rising, partial curve].

As to `Cc1c(C(=O)NCC2COc3ccccc3O2)oc2ccc(S(=O)(=O)N3CCOCC3)cc12` (centres undefined), the AC50 under setting [1] is 10 µM [falling, partial curve].

Take `COc1cccc(CSc2nc3n(n2)C(c2ccc(C(=O)O)cc2)C(C(=O)Nc2ccccc2)=C(C)N3)c1` (centres undefined): the AC50 under setting [1] is 0.158 µM [falling, full curve, poor fit].
